Data source: PubChem BioAssay AID1224828 (NIAID, 2016)
The whole screen tested about 17,000 reagents; this is a part drawn at random. 762 of all reagents (4.5%) were called active. 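Active calls include both raised and lowered p65 entry, mostly lowered; wells with fewer than 50 cells lack a z-score.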 Raw values are not corrected between plates.

Screen: 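Knock-downs that increase or decrease LPS-induced p65 nuclear translocation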 (primary screen)
Cell system: mouse RAW264.7 G9 macrophage reporter cells (GFP-p65, Tnf promoter-mCherry)
Reagent: siRNA pool against mouse genes, 100 nM
Timing: 2 days siRNA transfection, then 40 min LPS before fixation
Treatment: LPS (Salmonella minnesota R595) at 10 ng/ml
Detection: 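Imaged p65 nuclear translocation ratio, normalised to the plate median, converted to robust z-scores and averaged across two replicates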
Scale: p65 translocation robust z-score: higher = more nuclear NF-kappaB p65 after LPS than the plate median; nuclear/cytoplasmic p65 ratio: higher = more nuclear NF-kappaB p65
Call rule: 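Called active when z exceeds 3.3 or falls under -1.56 (median of Tlr4 controls), giving activity score of at least 50; no calls for control wells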
Calls: active = hit (p65 shift raised or lowered); inactive = no clear change

Gm5111 (predicted gene 5111) showed nuclear/cytoplasmic p65 ratio, rep 1 = 1.24; nuclear/cytoplasmic p65 ratio, rep 2 = 1.59; low cell count flag fewer than 50 cells per well; well left out of scoring; inactive. Piwil1 (piwi-like RNA-mediated gene silencing 1) scored p65 translocation robust z-score -0.46; nuclear/cytoplasmic p65 ratio, rep 1 = 1.51; nuclear/cytoplasmic p65 ratio, rep 2 = 1.28; low cell count flag enough cells to score; inactive. Tcp11l2 (t-complex 11 (mouse) like 2) showed p65 translocation robust z-score -1.62; nuclear/cytoplasmic p65 ratio, rep 1 = 1.25; nuclear/cytoplasmic p65 ratio, rep 2 = 1.15; low cell count flag enough cells to score; active. Against Zmym6 (zinc finger, MYM-type 6) the deposit lists p65 translocation robust z-score 0.46; nuclear/cytoplasmic p65 ratio, rep 1 = 1.47; nuclear/cytoplasmic p65 ratio, rep 2 = 1.62; low cell count flag enough cells to score; inactive. With knock-down of Cars1 (cysteinyl-tRNA synthetase 1), the record shows p65 translocation robust z-score -0.16; nuclear/cytoplasmic p65 ratio, rep 1 = 1.47; nuclear/cytoplasmic p65 ratio, rep 2 = 1.86; low cell count flag enough cells to score; inactive. Knock-down of Scn7a (sodium channel, voltage-gated, type VII, alpha) resulted in: p65 translocation robust z-score 0.03; nuclear/cytoplasmic p65 ratio, rep 1 = 1.53; nuclear/cytoplasmic p65 ratio, rep 2 = 1.21; low cell count flag enough cells to score; inactive.

For Bckdha (branched chain ketoacid dehydrogenase E1, alpha polypeptide), the values are p65 translocation robust z-score -0.25; nuclear/cytoplasmic p65 ratio, rep 1 = 1.57; nuclear/cytoplasmic p65 ratio, rep 2 = 1.58; low cell count flag enough cells to score; inactive. Against Gpd2 (glycerol phosphate dehydrogenase 2, mitochondrial), the values are p65 translocation robust z-score 0.33; nuclear/cytoplasmic p65 ratio, rep 1 = 1.4; nuclear/cytoplasmic p65 ratio, rep 2 = 1.43; low cell count flag enough cells to score; inactive. Rbbp8nl (RBBP8 N-terminal like) scored nuclear/cytoplasmic p65 ratio, rep 1 = 0.997; nuclear/cytoplasmic p65 ratio, rep 2 = 0.945; low cell count flag fewer than 50 cells per well; well left out of scoring; inactive.

Records listed above marked active (1):
Tcp11l2 (t-complex 11 (mouse) like 2) → p65 translocation robust z-score = -1.62; nuclear/cytoplasmic p65 ratio, rep 1 = 1.25; nuclear/cytoplasmic p65 ratio, rep 2 = 1.15; low cell count flag = enough cells to score; Call = active

The list goes on.
With knock-down of Plekha2 (pleckstrin homology domain containing A2), the screen gave nuclear/cytoplasmic p65 ratio, rep 1 = 1.1; nuclear/cytoplasmic p65 ratio, rep 2 = 1.1; low cell count flag fewer than 50 cells per well; well left out of scoring; inactive. Cdh20 (cadherin 20) scored p65 translocation robust z-score -0.33; nuclear/cytoplasmic p65 ratio, rep 1 = 1.47; nuclear/cytoplasmic p65 ratio, rep 2 = 1.29; low cell count flag enough cells to score; inactive. Bnip1 (BCL2/adenovirus E1B interacting protein 1) scored p65 translocation robust z-score 0.06; nuclear/cytoplasmic p65 ratio, rep 1 = 1.69; nuclear/cytoplasmic p65 ratio, rep 2 = 1.55; low cell count flag enough cells to score; inactive. Vmn1r52 (vomeronasal 1 receptor 52) showed p65 translocation robust z-score 0.81; nuclear/cytoplasmic p65 ratio, rep 1 = 0; nuclear/cytoplasmic p65 ratio, rep 2 = 1.32; low cell count flag enough cells to score; inactive. Rell2 (RELT-like 2) gave nuclear/cytoplasmic p65 ratio, rep 1 = 1.4; nuclear/cytoplasmic p65 ratio, rep 2 = 1.11; low cell count flag fewer than 50 cells per well; well left out of scoring; inactive.
